Results are given in words; binding and its absence hold for the method and conditions named. A result given as binding can be weak or reduced; the word gives no strength. Values belong to the binder of their own block, whether it stands above or below them.
Key:
[1] = biological target: murine AA amyloid in tissues of AA mice (mouse); assay: microautoradiography, SPECT/CT and biodistribution of 125I-p66 in AA mice
[2] = biological target: murine AA amyloid in tissues of AA mice (mouse); assay: pull-down of 125I-labeled peptide, 0.15 M or 1.0 M NaCl; mAA liver homogenate
[3] = biological target: murine AA amyloid in tissues of AA mice (mouse); assay: microautoradiography of 125I-p66 in AA mice, Congo red on consecutive sections
[4] = biological target: murine AA amyloid in tissues of AA mice (mouse); assay: immunohistochemistry with biotinylated clone 12-3 on tissues of AA mice given p66
[5] = biological target: murine AA amyloid in tissues of AA mice (mouse); assay: microautoradiography and immunohistochemistry, AA mice pre-targeted with p66, 24 h after 125I-11-1F4
[6] = biological target: murine AA amyloid in tissues of AA mice (mouse); assay: immunohistochemistry with biotinylated clone 12-3 on tissues of AA mice given p5+14

binding [1]: binds | binding [2]: binds | binding [3]: binds | binding [4]: binds | binding [5]: binds
B1: peptide p66 (11-1F4 peptope) (peptide)
peptide: KAQKAQAKQAKQAQKAQKAQAKQAKQAQKAQKAQAKQAKQSVTVVTKHYAAFPENLLI

binding [2]: binds | binding [6]: binds
B2: peptide p5+14 (peptide)
peptide: KAQKAQAKQAKQAQKAQKAQAKQAKQAQKAQKAQAKQAKQ

Source: patent US20170281807A1
